PubChem BioAssay AID1224830, NIAID, 2016

Purpose: 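Genes whose knock-down alters the TNF-alpha reporter response to LPS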 (primary screen)
System: human THP-1 monocytic leukaemia cells, TNF dual-luciferase reporter clone, PMA-differentiated to macrophage-like cells
Reagents: siRNA pool against human genes, 50 nM
Duration: LPS for 4 h, given about 3 days after siRNA transfection
Challenge: bacterial LPS (TLR4 ligand), 10 ng/ml
Detection: 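Ratio of firefly to renilla light, scaled to the plate median and expressed as a robust z-score per replicate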
Reading the numbers: TNF reporter robust z-score: higher = stronger TNF reporter response to LPS
Rule for the call: 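Each well counts as active if its z-score is over 2.8 or under -1.5; controls are left without a call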
Here is an unselected part of about 18,000 reagents. Of all reagents, about 2,900 (16%) got an active call. 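Calls are made per well; low scores hint the gene aids the LPS response, high scores that it dampens it.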 Repeated entries: four replicate wells of each siRNA pool. Reagent sequences are not shown.

With knock-down of SUN5 (GeneID 140732) [SID315462130] the results were TNF reporter robust z-score 1.91; inactive.
Knock-down of SUN5 (GeneID 140732) [SID315462130] came out at: TNF reporter robust z-score 1.32; inactive.
Silencing of SUN5 (GeneID 140732) [SID315462130] gave: TNF reporter robust z-score 1.01; inactive.
Depletion of SUN5 (GeneID 140732) [SID315462130] gave: TNF reporter robust z-score 1.19; inactive.
Against RAD54L (GeneID 8438) [SID315452559] the deposit lists TNF reporter robust z-score -0.12; inactive.
RAD54L (GeneID 8438) [SID315452559] gave TNF reporter robust z-score 0.59; inactive.
After knock-down of RAD54L (GeneID 8438) [SID315452559], the record shows TNF reporter robust z-score 0.27; inactive.
Silencing of RAD54L (GeneID 8438) [SID315452559] gave: TNF reporter robust z-score 0.9; inactive.

Records above whose gene name starts with S or s (4):
SUN5 (GeneID 140732) [SID315462130]: TNF reporter robust z-score = 1.91; call = inactive
SUN5 (GeneID 140732) [SID315462130]: TNF reporter robust z-score = 1.32; call = inactive
SUN5 (GeneID 140732) [SID315462130]: TNF reporter robust z-score = 1.01; call = inactive
SUN5 (GeneID 140732) [SID315462130]: TNF reporter robust z-score = 1.19; call = inactive

The list goes on.
Silencing of DDX18 (GeneID 8886) [SID315452902] resulted in: TNF reporter robust z-score 0.64; inactive.
Depletion of DDX18 (GeneID 8886) [SID315452902] resulted in: TNF reporter robust z-score 0.48; inactive.
With knock-down of DDX18 (GeneID 8886) [SID315452902], the screen gave TNF reporter robust z-score -0.85; inactive.
After knock-down of DDX18 (GeneID 8886) [SID315452902], the screen gave TNF reporter robust z-score 1.51; inactive.
Against UBE2U (GeneID 148581) [SID315462386], the entry reads TNF reporter robust z-score -0.64; inactive.
Depletion of UBE2U (GeneID 148581) [SID315462386] gave: TNF reporter robust z-score 0.17; inactive.
With knock-down of UBE2U (GeneID 148581) [SID315462386], the screen gave TNF reporter robust z-score 0.55; inactive.
Depletion of UBE2U (GeneID 148581) [SID315462386] resulted in: TNF reporter robust z-score 0.43; inactive.
CCDC110 (GeneID 256309) [SID315463519] scored TNF reporter robust z-score 0.84; inactive.
Depletion of CCDC110 (GeneID 256309) [SID315463519] gave: TNF reporter robust z-score 1.15; inactive.
Against CCDC110 (GeneID 256309) [SID315463519], the values are TNF reporter robust z-score 0.65; inactive.
For CCDC110 (GeneID 256309) [SID315463519] the deposit lists TNF reporter robust z-score 0.82; inactive.
